{"source": "paper PMC7473772", "about": "(eLife, 2020)", "note": "Where a name gives a salt, the structure may show the parent alone.", "data": [{"tested_on": "tbaqp2 null (AQP2-KO)", "assay": "Drug sensitivity assay (resazurin)", "assay_type": "cell-based, Trypanosoma brucei brucei", "conditions": "legend: EC50(aqp2/3 null)/EC50(TbAQP2-WT); table columns: AQP2-KO and control 2T1", "values": [{"compound": "N=C(N)c1ccc(-c2ccc(-c3ccc(C(=N)N)cc3)[se]2)cc1", "note": "[DB1213]", "RF (Resistance Factor)": 0.55}, {"compound": "N=C(N)c1ccc(-c2ccc(-c3ccc(C(=N)N)cc3)o2)cc1", "note": "[DB75]", "RF (Resistance Factor)": 0.40}, {"compound": "CC[n+]1c(-c2ccccc2)c2cc(N)ccc2c2ccc(N)cc21", "note": "[Ethidium]", "RF (Resistance Factor)": 1.05}, {"compound": "Cc1ccc(OCCCCCOc2ccc(C(=N)N)cc2)cc1", "note": "[CHI/1/72/1, 4-(5-(p-tolyloxy)pentyyloxy)benzimidamide hydrochloride hydrate]", "RF (Resistance Factor)": 0.82}, {"compound": "c1cc(C2=NCCN2)ccc1OCCCCCOc1ccc(C2=NCCN2)cc1", "note": "[RT-32]", "RF (Resistance Factor)": 1.23}, {"compound": "N=C(N)c1ccc(OCCCCCOc2ccc(C(=N)N)cc2)cc1", "note": "[Pentamidine]", "RF (Resistance Factor)": 9.08}, {"compound": "CNC(=N)c1ccc(OCCCCCOc2ccc(C(=N)NC)cc2)cc1", "note": "[RT-30]", "RF (Resistance Factor)": 1.35}, {"compound": "N=C(N)c1ccc(SCCCCCSc2ccc(C(=N)N)cc2)cc1", "note": "[RT-48]", "RF (Resistance Factor)": 6.97}, {"compound": "N=C(N)c1ccc(OCCCCCOc2ccc(N)cc2)cc1", "note": "[RT-36]", "RF (Resistance Factor)": 0.90}, {"compound": "N=C(N)c1ccc(OCCCCCOc2ccc(C(=N)N)cc2Cl)c(Cl)c1", "note": "[RT-43]", "RF (Resistance Factor)": 1.33}, {"compound": "N=C(N)c1ccc(OCCCCCOc2ccc(C(=N)N)cn2)nc1", "note": "[RT-52]", "RF (Resistance Factor)": 5.79}, {"compound": "N=C(N)c1ccc(/N=N/Nc2ccc(C(=N)N)cc2)cc1", "note": "[Diminazene]", "RF (Resistance Factor)": 0.89}, {"compound": "CC[n+]1c(-c2ccccc2)c2cc(N/N=N/c3cccc(C(=N)N)c3)ccc2c2ccc(N)cc21", "note": "[Isometamidium]", "RF (Resistance Factor)": 0.91}, {"compound": "N=C(N)c1ccc(NCCCCCNc2ccc(C(=N)N)cc2)cc1", "note": "[RT-50]", "RF (Resistance Factor)": 17.5}]}]}
